Out of some 53,000 sequences screened, about 3,700 (7%) were called active.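 How the source made its calls: active means gene knockdowns whose robust z-score for IL-1 alpha signal is at least 2 or at most -2, so actives lie on both sides; inactive means the rest.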 The list shows a part of the results.
test: Components of the Cytosolic LPS Sensing Pathway: Gene Identification via Genome-wide siRNA Screen; settings: RAW264.7 macrophages, IL-1a HTRF, actives lie on both sides, screened at 100 nM (by protocol), cells primed 5 h with Pam3CSK4 first;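 further: robust z of the log signal after scaling to non-targeting control siRNA wells of the plate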
How it was run: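 IL-1a HTRF of supernatants after 24 hour LipidA transfection of Pam3CSK4-primed (5 hours) RAW264.7 cells, 48h post-siRNA transfection (100 nM). Scores: percent of plate negative-control median, then log-based robust z-score.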

z-score, active:
GGACAAAAUUGAACACAAGTT against Pogz 2.86
CGGUCAUUAAUGAAGCCUGTT against Pamr1 2.65
CCUGAAUUACAGGGACCAGTT against Znrd1 3.49
UCUUACACUUCGUGUUCCATT against Gpr6 3.12

z-score, inactive:
GGACCAGUUGUAAAUGUUATT against Hoxd9 -0.578
GGUUUUCAGUACAUCCUGGTT against Cryba4 0.183
GGUGGCAAUGACAACUACUTT against Rnase4 -0.495
CGAUCAAAGAACCUGAAAGTT against Sidt1 -1.76
GGUUAUGAGGCUUAAUAAATT against Atxn7l1 0.965
GGAAGAAUUGGGUGUAGUGTT against L1cam -0.426
GGUGGCUCUGGUUAAACUCTT against Atmin 1.18
GGAAAUCGGCAAUCUGAAGTT against Lrrc1 0.523
GGACAGGUUCGAGUCAACATT against Acan 0.435
CCAUUUAUAUCAGGCAUCATT against Lrit1 -0.647
GGAAAAGUAUUGGUAGACGTT against Steap4 -1.73
GUCCCACUGUCCAGUUACATT against Gm9946 -0.565
CCUUAGACCCAAUAACUUUTT against Nrxn1 0.595
GCCCUCCUGUGAGUUUCUCTT against Mgme1 -0.564
CCUUAUCUUAAUGAUCUCCTT against Mc5r -0.54
GGGAAUGCAAUGGUUUGUGTT against Ocm 0.0293
GGGAUUAGAGACUGUCAUUTT against Nudt9 -0.354
CCCUGGUUCUAUGACUUAATT against Cers2 -1.12
GCACAAAAAAGUGAUAUUGTT against Hdlbp 0.41
GCAACUGGACAUUUAACAATT against Epgn 1.38
CCUCAAGGCUCAUAAAACATT against Zfp598 -1.56
GGCUUUGUGGACUUAAUUATT against Cyb5r2 -1
GGAUUGCUUCAAUGAGGAATT against Scgb2b27 0.135
GCAAGCUCAAAGCUUACGATT against Kcnv2 -0.0806
GGUCCUGUGCUCUACUUUGTT against Gng10 1.56
GGACUUGAUCAACUCUAUCTT against Supt3 0.524
CGUGACAAAUUGAAGGAAATT against Itsn2 -0.419
GGUGUACCAGAAUGAGAAGTT against Akr1b3 0.611
GCCUCUUUGGGUUCGUUUCTT against Opn3 0.797
GGACAACCACUUUAAGCUUTT against Tars2 1.04
GCAUCUCGGAAGAUCCUGUTT against Vip -0.251
UCCAGACUGUACCAUUCCATT against Mesp1 -0.147
GCUAAAGGAGUAUAAUAGUTT against Kirrel3os 0.718
GCCAGUAUUGUGCAACAAGTT against Klrk1 -1.36
GGACCAAUUGGAUCCUUUUTT against Olfr1340 -1.6
GCACUUACUCUUCAACGGGTT against Yae1d1 1.87
GGACCAGUUCUGGUUCAGATT against Fmn2 0.992
GCUAGAAAAAAAUCAGUUGTT against Eif2a 0.6
GGAAUUUAGUGUGCGGUCGTT against Oxa1l 0.0947
CCACACCUAUCUUCUACGUTT against Mars2 -0.306
GAUUACCGCACUUCAGAUCTT against Cep44 0.347
CGCUGAAAGUGAACGUAGGTT against Kcnv2 -1.14
GCCUUAACUAUAGUCCAGATT against Scn7a -0.928
GCCUCACUUUGACUGUCGCTT against Tpgs2 -0.289
UGUUACAACUCUUUGUGGUTT against Olfr1193 -1.15
GCCAAGCUUAAGAACUUAATT against Oas3 1.51
GCAGUAUCUAUGCUCUUGATT against Hand1 -1.15
GCUUGUUCGGUCCUUUGAUTT against Fbxw9 0.56
GGUAGACUUCGACAUCAAGTT against Hs6st2 1.65
GACGCAGAUGGUAUUUUUUTT against Orm2 1.24
CCUAGUCAAGGAUAGGUAUTT against AY702103 -1.01
GGAUAUCAGGAACAUAGUATT against P3h3 -0.735
GGGAUUUUAUCAUACAAACTT against Ppil4 0.774
GGAUGUGAGUGAGACUGUCTT against Mtm1 0.781
GCAAUAAUGGCAAGAAUGGTT against Otud7a -0.102
GAACUGGACAACUUUCUCCTT against Olfr1355 -0.0399
GGCACUUUUUGUUUUCAUGTT against Nckap1 0.505
GUUUGCUGCACCCUACUUATT against H2bc21 -0.727
CCUGAUUGUCACUCCUUUUTT against Pde4b 0.753
CCGACUAAUGCCAUCUUCATT against Pcbp2 -1.29
GGCAGAAUAUGAGUUUGAUTT against Camk1d -0.161
GGAAGAUCGAGAAUGUUCCTT against Ppih 0.174
GCAAUUACCUCUGAAAGGCTT against ccdc198 -0.922
GGGCAGUUUUCUCUAUAGGTT against Zfp740 1.26
UAUGCUGGCAGGGACACCUTT against Scarf1 0.263
GGUUUUAUUAACUCUGUGATT against Olfr1013 0.453
GGUUGCAUCACAGCGUAUATT against Phlpp1 0.759
GGUGUUGUCAGAAGUUUAATT against Slc22a13b 1.8
CGAAUAGGAUUUCGACCUGTT against Fbxw19 0.36
GCAUAGAUUCUCGAGUUUATT against Sugt1 0.754
GCAGGCUACCUCUAAUCCATT against Slc23a3 -0.241
GGCUAGAGCAUCAAGGAAUTT against Vps26a 0.626
CGUUUGCUUUUCAUCGUGGTT against Olfr154 0.107
GGAAAGUUGAAGAUUAAAGTT against Hsdl2 0.235
GGCAAUGAGAGUGCAUAUGTT against Lypd3 -1.61
CCUCCAGGAUUAUCGUGAUTT against Dnajc6 -1.22
GCAAAACGUAGCAGAAUUGTT against Magee1 0.227
GGUGGACAACGUGUUUGACTT against Atg101 1.43
CCUUUUAGUGAAAAUAGCATT against A430010J10Rik -0.924
CGUGAUAGUAGUGAAGUGATT against Usp22 -0.626
CCUGACAAGGUUUUAGCCUTT against Ttpal 0.793
GCCUAUCCCGAUGUUGUUGTT against Ap3m1 -0.825
CGAGCUGAACAGAAUGAUATT against Krt85 0.265
GGAUUUGUGAAGUUUUUUGTT against Psmd5 1.68
CCAGACCACUUCCCAUUCUTT against Aqr -0.798
GGUCAUGCAAUUUAUAAGATT against Fig4 -0.0415
CGAUUUAGUGGAACAAAUGTT against Nln -0.291
GGUUCACAUGUACAUUAAATT against Cracd -0.156
GGCAAAGCUAAAGGCCAAATT against Ensa 0.38
GCGAGUACUUUCCGCUGUUTT against Ltc4s 0.508
GGAAUUUGUCCAGAGUCACTT against Treh -1.41
GGCCAUGAUUGUGUUUCAGTT against Tspan8 1.76
GGAAGAAUGGGCUUUCUAGTT against Pask 0.0833
GCUAUGACUUCAACGACUATT against Pcsk4 -0.309
CCAGUCACGUUUUAAAAGCTT against Ccdc166 -0.696
GGAUGACAUCUCUAUCUUUTT against Atxn10 0.559
GCUUUAAUGUUGACCUAGUTT against Lgals8 -0.403
GGUCUUUGCCUUGAUUCAUTT against Hmgxb3 -0.576
GGGAGGAUAUUUUUUUGAATT against Cemip -0.0737
GGAACGACCAAAAGUGACGTT against Emcn 0.525
GGGUCAGGACUCCUUUAUGTT against Aen -1.94
CGGGCUGUUCAGAAAUCGATT against Trmu -0.958
GGUGACAAACCGAUACUUGTT against Cope -0.966

A run of entries from further up, for reference:
z-score, inactive:
GGGAAUGCAAUGGUUUGUGTT against Ocm 0.0293
GGGAUUAGAGACUGUCAUUTT against Nudt9 -0.354
CCCUGGUUCUAUGACUUAATT against Cers2 -1.12
GCACAAAAAAGUGAUAUUGTT against Hdlbp 0.41
GCAACUGGACAUUUAACAATT against Epgn 1.38
CCUCAAGGCUCAUAAAACATT against Zfp598 -1.56
GGCUUUGUGGACUUAAUUATT against Cyb5r2 -1
GGAUUGCUUCAAUGAGGAATT against Scgb2b27 0.135
GCAAGCUCAAAGCUUACGATT against Kcnv2 -0.0806
GGUCCUGUGCUCUACUUUGTT against Gng10 1.56
GGACUUGAUCAACUCUAUCTT against Supt3 0.524
CGUGACAAAUUGAAGGAAATT against Itsn2 -0.419
GGUGUACCAGAAUGAGAAGTT against Akr1b3 0.611
GCCUCUUUGGGUUCGUUUCTT against Opn3 0.797
GGACAACCACUUUAAGCUUTT against Tars2 1.04
GCAUCUCGGAAGAUCCUGUTT against Vip -0.251
UCCAGACUGUACCAUUCCATT against Mesp1 -0.147
GCUAAAGGAGUAUAAUAGUTT against Kirrel3os 0.718
GCCAGUAUUGUGCAACAAGTT against Klrk1 -1.36
